This is an account of results in the supplement of paper PMC6411743.

Protein sequences, listed by entry. Tags and fused reporters are not part of them. Lines headed by an entry give the natural chain unless they say otherwise; changes in a name come on top.
UniProt A4D161: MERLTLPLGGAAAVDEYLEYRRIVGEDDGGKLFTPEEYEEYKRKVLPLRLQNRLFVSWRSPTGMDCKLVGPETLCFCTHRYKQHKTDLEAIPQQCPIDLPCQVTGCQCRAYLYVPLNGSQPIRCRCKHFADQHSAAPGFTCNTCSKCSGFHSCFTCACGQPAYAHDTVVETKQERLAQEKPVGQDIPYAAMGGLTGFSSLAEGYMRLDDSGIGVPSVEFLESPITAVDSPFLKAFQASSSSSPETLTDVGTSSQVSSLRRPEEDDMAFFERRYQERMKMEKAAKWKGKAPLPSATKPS
UniProt Q13277: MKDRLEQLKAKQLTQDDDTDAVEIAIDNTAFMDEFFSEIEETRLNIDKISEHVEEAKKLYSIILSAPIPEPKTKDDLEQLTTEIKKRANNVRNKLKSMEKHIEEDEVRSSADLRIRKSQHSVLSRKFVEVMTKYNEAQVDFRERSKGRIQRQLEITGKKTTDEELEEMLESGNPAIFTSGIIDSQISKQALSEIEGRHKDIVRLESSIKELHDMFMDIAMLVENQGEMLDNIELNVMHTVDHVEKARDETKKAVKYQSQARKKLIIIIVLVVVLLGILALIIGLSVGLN
UniProt Q9NYB9: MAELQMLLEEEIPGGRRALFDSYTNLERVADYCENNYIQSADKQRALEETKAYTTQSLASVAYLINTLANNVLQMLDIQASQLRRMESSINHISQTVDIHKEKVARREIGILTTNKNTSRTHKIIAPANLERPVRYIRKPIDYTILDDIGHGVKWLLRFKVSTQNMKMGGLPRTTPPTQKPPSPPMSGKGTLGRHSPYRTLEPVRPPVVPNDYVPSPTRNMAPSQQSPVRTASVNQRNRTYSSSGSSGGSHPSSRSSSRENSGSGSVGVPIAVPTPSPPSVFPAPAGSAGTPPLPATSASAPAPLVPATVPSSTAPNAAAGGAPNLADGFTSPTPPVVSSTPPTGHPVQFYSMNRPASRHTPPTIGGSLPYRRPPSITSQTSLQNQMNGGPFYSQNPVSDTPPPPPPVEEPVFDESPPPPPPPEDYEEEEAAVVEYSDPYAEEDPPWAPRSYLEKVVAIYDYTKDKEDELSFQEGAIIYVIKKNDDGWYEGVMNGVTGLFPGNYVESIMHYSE
UniProt P98175: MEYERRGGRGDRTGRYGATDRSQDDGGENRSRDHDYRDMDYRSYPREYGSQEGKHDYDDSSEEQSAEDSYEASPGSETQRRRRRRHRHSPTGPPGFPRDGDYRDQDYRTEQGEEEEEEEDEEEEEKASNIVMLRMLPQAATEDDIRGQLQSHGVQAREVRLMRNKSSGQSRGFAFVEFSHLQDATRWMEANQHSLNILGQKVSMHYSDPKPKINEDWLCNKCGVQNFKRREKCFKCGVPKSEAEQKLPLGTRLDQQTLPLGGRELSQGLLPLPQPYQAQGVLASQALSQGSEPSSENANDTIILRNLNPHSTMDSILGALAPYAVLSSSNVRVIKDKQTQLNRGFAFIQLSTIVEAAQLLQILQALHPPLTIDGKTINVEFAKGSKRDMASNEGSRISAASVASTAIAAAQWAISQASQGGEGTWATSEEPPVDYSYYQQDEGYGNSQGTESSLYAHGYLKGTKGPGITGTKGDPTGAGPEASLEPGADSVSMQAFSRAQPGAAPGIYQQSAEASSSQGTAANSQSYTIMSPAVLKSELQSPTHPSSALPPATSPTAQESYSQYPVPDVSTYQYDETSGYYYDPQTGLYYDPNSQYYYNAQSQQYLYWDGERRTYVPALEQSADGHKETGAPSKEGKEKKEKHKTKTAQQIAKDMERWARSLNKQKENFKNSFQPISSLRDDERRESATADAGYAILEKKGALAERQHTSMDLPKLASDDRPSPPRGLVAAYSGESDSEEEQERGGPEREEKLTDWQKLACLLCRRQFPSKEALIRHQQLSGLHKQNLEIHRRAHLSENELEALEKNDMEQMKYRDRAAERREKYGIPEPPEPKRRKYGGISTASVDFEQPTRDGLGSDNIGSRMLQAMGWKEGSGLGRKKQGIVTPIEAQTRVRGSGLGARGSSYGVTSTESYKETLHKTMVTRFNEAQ
UniProt Q9UHX1: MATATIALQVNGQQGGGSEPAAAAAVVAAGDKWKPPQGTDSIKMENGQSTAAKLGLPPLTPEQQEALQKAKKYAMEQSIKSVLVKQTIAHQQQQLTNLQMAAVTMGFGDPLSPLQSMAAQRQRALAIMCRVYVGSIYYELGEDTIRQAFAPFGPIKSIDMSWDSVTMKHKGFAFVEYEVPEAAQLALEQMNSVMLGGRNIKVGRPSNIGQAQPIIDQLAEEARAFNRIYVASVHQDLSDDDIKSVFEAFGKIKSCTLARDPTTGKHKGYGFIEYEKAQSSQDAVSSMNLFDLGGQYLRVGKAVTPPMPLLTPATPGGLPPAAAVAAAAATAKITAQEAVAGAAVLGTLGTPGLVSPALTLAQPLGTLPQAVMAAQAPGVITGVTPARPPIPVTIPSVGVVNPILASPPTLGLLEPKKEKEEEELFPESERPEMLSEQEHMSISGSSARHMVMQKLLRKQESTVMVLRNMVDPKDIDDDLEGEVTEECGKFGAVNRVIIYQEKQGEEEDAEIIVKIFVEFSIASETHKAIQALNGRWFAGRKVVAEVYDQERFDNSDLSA
UniProt Q14978: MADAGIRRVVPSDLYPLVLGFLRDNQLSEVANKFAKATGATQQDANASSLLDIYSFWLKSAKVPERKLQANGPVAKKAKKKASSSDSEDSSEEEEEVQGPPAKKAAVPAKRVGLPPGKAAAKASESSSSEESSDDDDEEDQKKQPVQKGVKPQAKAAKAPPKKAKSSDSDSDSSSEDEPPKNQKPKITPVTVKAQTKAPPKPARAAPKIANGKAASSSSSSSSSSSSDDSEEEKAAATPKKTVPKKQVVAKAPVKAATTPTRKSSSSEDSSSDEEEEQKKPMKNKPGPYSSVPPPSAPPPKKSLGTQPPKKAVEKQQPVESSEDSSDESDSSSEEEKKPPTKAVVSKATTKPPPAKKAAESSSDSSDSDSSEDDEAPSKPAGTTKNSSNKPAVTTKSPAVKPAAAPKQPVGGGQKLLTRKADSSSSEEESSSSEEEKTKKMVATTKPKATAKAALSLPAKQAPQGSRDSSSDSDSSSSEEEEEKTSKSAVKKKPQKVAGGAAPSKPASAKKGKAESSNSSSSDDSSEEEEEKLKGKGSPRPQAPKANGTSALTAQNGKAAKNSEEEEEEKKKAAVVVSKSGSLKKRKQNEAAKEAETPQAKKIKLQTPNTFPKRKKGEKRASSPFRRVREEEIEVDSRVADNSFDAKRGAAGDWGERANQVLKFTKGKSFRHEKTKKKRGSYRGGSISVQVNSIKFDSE
UniProt Q04206, whole entry: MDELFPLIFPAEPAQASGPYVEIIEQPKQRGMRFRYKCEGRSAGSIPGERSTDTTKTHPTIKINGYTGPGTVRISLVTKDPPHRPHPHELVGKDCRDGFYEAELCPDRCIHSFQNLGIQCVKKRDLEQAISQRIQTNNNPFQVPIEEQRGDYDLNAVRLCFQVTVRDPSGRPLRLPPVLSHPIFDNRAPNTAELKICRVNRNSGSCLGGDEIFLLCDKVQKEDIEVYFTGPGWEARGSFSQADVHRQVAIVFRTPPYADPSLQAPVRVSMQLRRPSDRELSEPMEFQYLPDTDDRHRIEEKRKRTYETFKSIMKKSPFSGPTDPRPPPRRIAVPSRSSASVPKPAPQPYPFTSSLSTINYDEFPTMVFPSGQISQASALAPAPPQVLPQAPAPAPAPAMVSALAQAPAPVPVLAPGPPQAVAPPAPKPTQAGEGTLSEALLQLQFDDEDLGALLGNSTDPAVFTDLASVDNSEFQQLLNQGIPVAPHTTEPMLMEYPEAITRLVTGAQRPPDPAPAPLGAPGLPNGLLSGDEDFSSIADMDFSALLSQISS
UniProt Q9NZ72: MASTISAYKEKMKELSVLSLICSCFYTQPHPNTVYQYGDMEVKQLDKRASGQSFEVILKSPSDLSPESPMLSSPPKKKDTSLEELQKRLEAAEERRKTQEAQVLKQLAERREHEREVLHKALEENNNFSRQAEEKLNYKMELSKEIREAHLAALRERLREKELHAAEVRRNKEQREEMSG
UniProt Q5VU43: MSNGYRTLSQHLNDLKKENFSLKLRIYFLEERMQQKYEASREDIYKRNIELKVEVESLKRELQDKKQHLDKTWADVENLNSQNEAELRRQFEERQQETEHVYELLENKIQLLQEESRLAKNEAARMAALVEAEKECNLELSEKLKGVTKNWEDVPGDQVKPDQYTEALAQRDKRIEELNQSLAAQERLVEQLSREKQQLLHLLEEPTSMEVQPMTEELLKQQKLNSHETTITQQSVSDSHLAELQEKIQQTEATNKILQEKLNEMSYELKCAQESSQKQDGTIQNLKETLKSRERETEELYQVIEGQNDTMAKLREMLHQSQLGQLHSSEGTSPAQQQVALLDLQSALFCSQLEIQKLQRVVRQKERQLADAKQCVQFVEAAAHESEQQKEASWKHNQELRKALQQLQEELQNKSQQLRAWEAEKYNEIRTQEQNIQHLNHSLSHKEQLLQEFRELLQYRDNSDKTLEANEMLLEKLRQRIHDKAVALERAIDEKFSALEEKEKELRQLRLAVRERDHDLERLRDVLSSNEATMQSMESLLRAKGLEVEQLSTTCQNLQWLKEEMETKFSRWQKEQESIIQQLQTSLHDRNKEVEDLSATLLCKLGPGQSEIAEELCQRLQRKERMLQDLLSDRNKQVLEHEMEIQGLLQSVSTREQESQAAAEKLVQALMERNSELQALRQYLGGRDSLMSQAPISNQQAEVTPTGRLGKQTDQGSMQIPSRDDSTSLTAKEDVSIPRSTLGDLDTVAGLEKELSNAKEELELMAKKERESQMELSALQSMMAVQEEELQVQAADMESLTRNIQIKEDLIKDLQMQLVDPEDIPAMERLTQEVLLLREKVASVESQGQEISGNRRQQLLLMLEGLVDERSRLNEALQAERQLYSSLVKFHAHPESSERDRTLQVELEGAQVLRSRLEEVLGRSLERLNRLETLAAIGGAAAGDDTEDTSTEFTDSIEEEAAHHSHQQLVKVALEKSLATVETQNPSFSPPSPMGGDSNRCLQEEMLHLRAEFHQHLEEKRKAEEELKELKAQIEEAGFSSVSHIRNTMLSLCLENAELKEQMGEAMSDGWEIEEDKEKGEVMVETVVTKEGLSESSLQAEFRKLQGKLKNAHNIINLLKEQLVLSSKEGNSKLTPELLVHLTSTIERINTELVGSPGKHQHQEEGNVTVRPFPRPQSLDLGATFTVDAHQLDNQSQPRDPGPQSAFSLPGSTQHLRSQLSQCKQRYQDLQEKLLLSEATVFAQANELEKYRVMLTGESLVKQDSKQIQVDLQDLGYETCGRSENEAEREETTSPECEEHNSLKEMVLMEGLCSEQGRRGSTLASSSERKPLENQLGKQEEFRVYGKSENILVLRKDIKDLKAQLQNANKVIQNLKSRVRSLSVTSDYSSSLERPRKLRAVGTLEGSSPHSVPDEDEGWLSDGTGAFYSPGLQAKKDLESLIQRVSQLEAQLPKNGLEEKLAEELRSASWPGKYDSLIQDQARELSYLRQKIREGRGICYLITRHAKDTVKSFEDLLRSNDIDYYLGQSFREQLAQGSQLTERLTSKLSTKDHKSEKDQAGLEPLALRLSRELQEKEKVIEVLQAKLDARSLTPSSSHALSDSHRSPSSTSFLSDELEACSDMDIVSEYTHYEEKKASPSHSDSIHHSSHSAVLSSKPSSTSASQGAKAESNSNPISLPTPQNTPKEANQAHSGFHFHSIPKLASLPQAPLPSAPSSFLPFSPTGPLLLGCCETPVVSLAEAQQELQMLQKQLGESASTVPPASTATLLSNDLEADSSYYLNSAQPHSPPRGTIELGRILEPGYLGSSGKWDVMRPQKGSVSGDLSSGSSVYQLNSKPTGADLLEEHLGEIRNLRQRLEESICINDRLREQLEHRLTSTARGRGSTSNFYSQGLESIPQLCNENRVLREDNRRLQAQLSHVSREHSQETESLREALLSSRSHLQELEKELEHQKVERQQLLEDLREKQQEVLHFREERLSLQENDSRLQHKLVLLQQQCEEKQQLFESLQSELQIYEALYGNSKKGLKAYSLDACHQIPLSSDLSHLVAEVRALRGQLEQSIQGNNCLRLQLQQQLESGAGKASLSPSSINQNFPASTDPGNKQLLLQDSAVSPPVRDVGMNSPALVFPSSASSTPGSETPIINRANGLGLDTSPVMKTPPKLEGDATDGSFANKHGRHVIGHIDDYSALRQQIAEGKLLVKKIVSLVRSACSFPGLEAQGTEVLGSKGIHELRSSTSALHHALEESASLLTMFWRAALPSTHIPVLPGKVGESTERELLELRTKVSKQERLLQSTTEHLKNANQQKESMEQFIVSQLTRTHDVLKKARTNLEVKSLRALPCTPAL
UniProt P22061: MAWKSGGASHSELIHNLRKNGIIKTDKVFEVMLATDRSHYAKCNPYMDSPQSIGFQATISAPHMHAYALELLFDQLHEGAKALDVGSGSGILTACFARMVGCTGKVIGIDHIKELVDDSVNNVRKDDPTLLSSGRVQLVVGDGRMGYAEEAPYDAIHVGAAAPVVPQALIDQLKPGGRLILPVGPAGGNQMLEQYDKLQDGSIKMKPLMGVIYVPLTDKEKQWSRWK

Compound in this assay: Nc1nc2c(ncn2[C@@H]2O[C@H](COP(=O)(O)OP(=O)(O)OP(=O)(O)O)[C@@H](O)[C@H]2O)c(=O)[nH]1 [guanosine triphosphate]
The assay can be described thus: NP40-soluble protein abundance relative to vehicle (solubility fold change) (ratio); higher = more soluble protein in presence of GTP. A digest of the protocol: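 Eight concentrations, 0.1 to 10 mM, were tested on Jurkat crude lysate for 10 min at room temperature and then 3 min at 37 °C, in three independent experiments. The lysate was solubilised with 0.8% NP40 and benzonase, ultracentrifuged, and the supernatant TMT-labelled for LC-MS/MS. Each value is the fold change against the detergent-processed vehicle in its own replicate, from vsn-normalised intensities.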

± gives the standard deviation of the averaged measurements. Some of the results follow.

As for UniProt A4D161 and related entries, the NP40-soluble protein abundance turned out to be 1.07 ± 0.17 (concentration: 0.1mM); 1.05 ± 0.19 (concentration: 0.5mM); 1.02 ± 0.2 (concentration: 1mM); 1 ± 0.12 (concentration: 2mM); 1.01 ± 0.09 (concentration: 4mM); 0.974 ± 0.14 (concentration: 6mM). In addition, the NP40-soluble protein abundance came out at 0.979 ± 0.062 (concentration: 8mM) and 1.01 ± 0.16 (concentration: 10mM).
As to “A0A0C4DGE4|A0A0J9YW33|F8W9Y0 and related entries (UniProt Q13277)”, the NP40-soluble protein abundance came out at 1.09 ± 0.057 (concentration: 0.1mM); 1.16 ± 0.049 (concentration: 0.5mM); 1.096 ± 0.0038 (concentration: 1mM); 1.13 ± 0.062 (concentration: 2mM); 1.11 ± 0.1 (concentration: 4mM); 1.08 ± 0.063 (concentration: 6mM). The NP40-soluble protein abundance runs as follows: (concentration: 8mM) 1.18 ± 0.022; (concentration: 10mM) 1.09 ± 0.073.
For “A0A0C4DG21|B7Z836 and related entries (UniProt Q9NYB9)”, the NP40-soluble protein abundance runs as follows: (concentration: 0.1mM) 0.932 ± 0.033; (concentration: 0.5mM) 0.925 ± 0.037; (concentration: 1mM) 1 ± 0.024; (concentration: 2mM) 1 ± 0.067; (concentration: 4mM) 0.971 ± 0.042; (concentration: 6mM) 1.01 ± 0.046. Besides, the NP40-soluble protein abundance runs as follows: (concentration: 8mM) 1.01 ± 0.032; (concentration: 10mM) 1.06 ± 0.086.
As to “A0A0A0MR66|P98175 and related entries (UniProt P98175)”, the NP40-soluble protein abundance turned out to be 0.994 ± 0.035 (concentration: 0.1mM); 1.03 ± 0.028 (concentration: 0.5mM); 1.06 ± 0.013 (concentration: 1mM); 1.08 ± 0.041 (concentration: 2mM); 1.15 ± 0.042 (concentration: 4mM); 1.21 ± 0.049 (concentration: 6mM). Moreover, the NP40-soluble protein abundance was found to be 1.28 ± 0.098 (concentration: 8mM) and 1.28 ± 0.12 (concentration: 10mM).
For “A0A0J9YVP6|E9PQ56 and related entries (UniProt Q9UHX1)”, the NP40-soluble protein abundance was 1.03 ± 0.035 (concentration: 0.1mM); 1.12 ± 0.062 (concentration: 0.5mM); 1.1 ± 0.057 (concentration: 1mM); 1.09 ± 0.042 (concentration: 2mM); 1.06 ± 0.05 (concentration: 4mM); 1.08 ± 0.06 (concentration: 6mM). Moreover, the NP40-soluble protein abundance by setting is: (concentration: 8mM) 1.08 ± 0.076; (concentration: 10mM) 1.07 ± 0.083.
For the target “A0A0A0MRM9|Q14978 and related entries (UniProt Q14978)”, the NP40-soluble protein abundance (concentration: 0.1mM) was found to be 0.867 ± 0.045; the NP40-soluble protein abundance (concentration: 0.5mM) was determined as 0.851 ± 0.12; the NP40-soluble protein abundance (concentration: 1mM) turned out to be 0.956 ± 0.12; the NP40-soluble protein abundance (concentration: 2mM) amounted to 1.01 ± 0.16; the NP40-soluble protein abundance (concentration: 4mM) is 1.18 ± 0.14; the NP40-soluble protein abundance (concentration: 6mM) was determined as 1.35 ± 0.15. Moreover, the NP40-soluble protein abundance runs as follows: (concentration: 8mM) 1.44 ± 0.079; (concentration: 10mM) 1.64 ± 0.13.
In the case of “A0A087X0W8|Q04206 and related entries (UniProt Q04206)”, the NP40-soluble protein abundance was determined as 1 ± 0.022 (concentration: 0.1mM); 0.9839 ± 0.0077 (concentration: 0.5mM); 0.952 ± 0.031 (concentration: 1mM); 0.901 ± 0.029 (concentration: 2mM); 0.905 ± 0.036 (concentration: 4mM); 0.898 ± 0.04 (concentration: 6mM). For the same target, the NP40-soluble protein abundance was 0.919 ± 0.0098 (concentration: 8mM) and 0.89 ± 0.027 (concentration: 10mM).
For “A0A0J9YW36|Q9NZ72 and related entries (UniProt Q9NZ72)”, the NP40-soluble protein abundance is 0.8625 ± 0.0031 (concentration: 0.1mM); 0.848 ± 0.012 (concentration: 0.5mM); 0.951 ± 0.096 (concentration: 1mM); 0.9315 ± 0.0066 (concentration: 2mM); 0.877 ± 0.034 (concentration: 4mM); 0.96 ± 0.1 (concentration: 6mM). For the same target, the NP40-soluble protein abundance runs as follows: (concentration: 8mM) 0.898 ± 0.063; (concentration: 10mM) 0.942 ± 0.14.
“A0A0B4J2B4|K7EJ78 and related entries (UniProt P62841)”: the NP40-soluble protein abundance turned out to be 1.05 ± 0.079 (concentration: 0.1mM); 1.03 ± 0.11 (concentration: 0.5mM); 1.11 ± 0.23 (concentration: 1mM); 1.05 ± 0.25 (concentration: 2mM); 0.969 ± 0.27 (concentration: 4mM); 0.89 ± 0.3 (concentration: 6mM). Also, the NP40-soluble protein abundance worked out at 0.861 ± 0.3 (concentration: 8mM) and 0.844 ± 0.3 (concentration: 10mM).
As to “A0A0C4DFQ0|E9PL24 and related entries (UniProt Q5VU43)”, the NP40-soluble protein abundance (concentration: 0.1mM) was found to be 1.05 ± 0.072; the NP40-soluble protein abundance (concentration: 0.5mM) worked out at 1.02 ± 0.028; the NP40-soluble protein abundance (concentration: 1mM) was found to be 1.01 ± 0.032; the NP40-soluble protein abundance (concentration: 2mM) is 1.05 ± 0.042; the NP40-soluble protein abundance (concentration: 4mM) was 0.991 ± 0.081; the NP40-soluble protein abundance (concentration: 6mM) stood at 1.02 ± 0.079. In addition, the NP40-soluble protein abundance was determined as 1.04 ± 0.11 (concentration: 8mM) and 1.03 ± 0.11 (concentration: 10mM).
Take A0A0A0MTS7|Q8WZ42-12 (UniProt Q8WZ42): the NP40-soluble protein abundance (concentration: 0.1mM) turned out to be 1.06 ± 0.045; the NP40-soluble protein abundance (concentration: 0.5mM) came out at 1.02 ± 0.074; the NP40-soluble protein abundance (concentration: 1mM) is 0.994 ± 0.029; the NP40-soluble protein abundance (concentration: 2mM) is 0.969 ± 0.022; the NP40-soluble protein abundance (concentration: 4mM) came out at 0.951 ± 0.063; the NP40-soluble protein abundance (concentration: 6mM) came to 0.982 ± 0.055. Moreover, the NP40-soluble protein abundance is, setting by setting: (concentration: 8mM) 0.978 ± 0.058; (concentration: 10mM) 0.922 ± 0.068.
In the case of “A0A0A0MRJ6|C9J0F2 and related entries (UniProt P22061)”, the NP40-soluble protein abundance stood at 0.912 ± 0.074 (concentration: 0.1mM); 0.923 ± 0.037 (concentration: 0.5mM); 0.938 ± 0.046 (concentration: 1mM); 0.91 ± 0.06 (concentration: 2mM); 0.909 ± 0.054 (concentration: 4mM); 0.928 ± 0.062 (concentration: 6mM). Further, the NP40-soluble protein abundance (concentration: 8mM) was found to be 0.892 ± 0.069 and the NP40-soluble protein abundance (concentration: 10mM) came to 0.925 ± 0.035.
